Measured values reported in PubChem BioAssay AID2685 (National Center for Advancing Translational Sciences (NCATS), 2010).
Hit rate of the full screen: of about 320,000 compounds, about 2,100 (0.66%) were called active. Inconclusive means that the source gave no clear call. Such entries were picked first, then a sample of the others. The call rests on the fitted dose curve; in most records, active means well fitted inhibition curve with a large enough effect in the signal ratio, with a control signal flat (not every such curve was filed as active); inconclusive means small, poorly fitted or top-dose-only effect, or effect the other way, or a change in a side signal; inactive means flat fitted curve, though single readings scatter; the % refers to the signal ratio. A potency beside an inconclusive call is a rough fit, not a confirmed value.

assay: qHTS Assay for Lipid Storage Modulators in Drosophila S3 Cells; settings: BODIPY lipid droplet fluorescence, 18-24 h, cells fed with added oleic acid; lipid storage change, negative = inhibition: at 46.1 µM (top of the series) unless noted
Procedure, shortened: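 Drosophila S3 cells got compounds at several concentrations plus oleic acid (400 uM solution). Laser-scanning cytometry with 488 nm excitation read lipid droplets at 500-530 nm and cells at 575-640 nm. Percent activity was relative to 20 uM Triacsin C.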
On the % scale 0 is the no-effect control and ±100 the full control effect; potency means the concentration at half of the fitted maximal effect.

Row | SMILES | lipid storage change, negative = inhibition | Potency
1 | COc1ccc(OCC(=O)Nc2ccc(S(=O)(=O)Nc3cc(C)on3)cc2)cc1 | inconclusive | –
2 | CCN(CC)C(c1ccc(F)cc1)c1nnnn1C1CCCCC1 (centres undefined) | inactive: 10.6% | –
3 | COc1ccc(CNC(=O)CCc2nc(-c3ccccc3F)no2)c(OC)c1 | – | inconclusive: 6510 nM [rising, single point]
4 | O=C(CN1CCOCC1)NC1C2CC3CC(C2)CC1C3 (centres undefined) | – | inconclusive: 731 nM [falling, full curve]
5 | COc1ccccc1N/N=C(\C#N)C(=N)N1CCOCC1 | inconclusive: 10.2% | –
6 | CC(C)(C)C1CCC(=O)N(CCOc2ccccc2)CC1 (centres undefined) | inconclusive: -41% | –
7 | COc1ccc(NC(=O)NCCN2CCN(c3cc(OC)ccc3OC)CC2)cc1 | inconclusive: -20.2% | –
8 | COc1ccc(CN(C)C(=O)c2ccc(NC(=O)CC3SC(N4CCCC4)=NC3=O)cc2)c(OC)c1OC (centres undefined) | inconclusive: 20.4% | –
9 | CCCc1nc2ccccc2c(=O)n1-c1c(C)n(C)n(-c2ccccc2)c1=O | inconclusive: -19.1% | –
10 | COc1ccc(CN(C(=O)c2ccc(C)cc2)C2CCS(=O)(=O)C2)cc1 (centres undefined) | – | inconclusive: 29100 nM [activator, single point]
11 | Nn1c(SCc2nc3ccccc3[nH]2)nnc1C1CCCCC1 | inconclusive: 44% | –
12 | COc1ccc2[nH]c3c(c2c1)CCn1c-3nc2ccccc2c1=O | – | inconclusive: 731 nM [activator, full curve]
13 | COc1cc(C(=O)OCC(=O)Nc2ccc(SC(F)F)cc2)cc(OC)c1OC | inconclusive: -7.95% | –
14 | COc1ccc2c(c1)[n+](=O)c(C(C)=O)c(C)n2[O-] | inconclusive: 6.96% | –
15 | O=C(O)c1cccc(C(=O)O)n1 | – | inconclusive: 36.6 nM [falling, full curve]
16 | COc1ccc(C(=O)Nc2nc(-c3cccs3)cs2)cc1 | – | inconclusive: 4110 nM [activator, partial curve, poor fit]
17 | CCCCN(C(=O)c1cc(CC)c(C)s1)c1c(N)n(CCC)c(=O)[nH]c1=O | – | inconclusive: 920 nM [rising, partial curve, poor fit]
18 | Cc1ccc(S(=O)(=O)NCc2ccco2)cc1C(N)=O | inconclusive: 22.5% | –
19 | CCCCc1ccc(NC(=S)NCC2CCCO2)cc1 (centres undefined) | – | inconclusive: 18400 nM [activator, single point]
20 | Cc1cccc(NC(=O)CNC(=O)Cn2cc(C(F)(F)F)cc(Cl)c2=O)c1C | inconclusive | –
21 | CCCCC(=O)Nc1ccc2c3c(cccc13)C(=O)N2CC | inconclusive: -33.1% | –
22 | CC1CCCCC12NC(=O)N(CC(=O)Nc1ccc(N3CCCCC3)cc1)C2=O (centres undefined) | inconclusive | –
23 | CCOC(=O)N1CCN(c2nc(-c3ccccc3)c3cc(C)ccc3n2)CC1 | – | inconclusive: 651 nM [falling, single point]
24 | CCOc1ccc(C(=O)Nc2cc(NC(=O)c3ccc(OCC)c(Cl)c3)cc(C(=O)O)c2)cc1Cl | inconclusive: -6.37% | –
25 | O=C(O)c1ccc(/C=N/NC(=O)C(O)(c2ccccc2)c2ccccc2)cc1 | – | inconclusive: 29100 nM [activator, single point]

Row | SMILES | lipid storage change, negative = inhibition | Potency
26 | CCOC(=O)c1cccc(NC(=O)c2cccs2)c1 | inconclusive: -6.85% | –
27 | CC(O)CNc1nc2ccccc2n1CC(=O)N1CCN(Cc2ccccc2)CC1 (centres undefined) | inconclusive: 5.51% | –
28 | Cc1ccc(CN2[C@@H](CC3CCCCC3)COCCS2(=O)=O)cc1 | inconclusive: -2.98% | –
29 | COc1ccc(/C=N/NC(=O)Cn2nnc3ccccc32)cc1OC | inconclusive: 16.7% | –
30 | COc1ccc(N(C(C)C(=O)N/N=C/c2cccnc2)S(C)(=O)=O)cc1 (centres undefined) | – | inconclusive: 6510 nM [falling, single point]
31 | N#Cc1ccccc1Cn1c(=O)n(CCCC(=O)NCc2ccc3c(c2)OCO3)c(=O)c2ccccc21 | inconclusive: 24.5% | –
32 | COc1c(-c2ccccc2)oc2c(ccc3occc32)c1=O | – | inconclusive: 116 nM [activator, full curve, poor fit]
33 | CC(=O)CCSc1ncnc2sc(-c3ccccc3)cc12 | inconclusive: -3.38% | –
34 | CCOC(=O)c1c(C)n(C)c2ccc(OCC(O)CN3CCCCCC3)cc12 (centres undefined) | – | inconclusive: 16400 nM [activator, single point]
35 | Cc1ccc(NC(=O)N2CCCC2C(=O)NCC2CCCCC2)cc1 (centres undefined) | – | inconclusive: 2310 nM [activator, single point]
36 | Cc1cc(Br)ccc1NC(=O)CN(C)C(=O)COc1cccc2c1OC(C)(C)C2 | – | inconclusive: 731 nM [rising, partial curve, poor fit]
37 | C=CCCCCCCCCC(=O)Nc1c[nH]c(=O)[nH]c1=O | inconclusive: 5.01% | –
38 | C[C@H](NC(=O)C1CC(=O)N(c2ccc3c(c2)OCCO3)C1)C(=O)N1CCCCC1 (some centres undefined) | inconclusive: 12.2% | –
39 | O=C(c1ccc2c(=O)n(-c3ccccc3)c(=S)[nH]c2c1)N1CCN(c2ccccc2)CC1 | – | inconclusive: 18400 nM [falling, partial curve]
40 | C=C(C)Cn1c(SCCCO)nc2c1c(=O)[nH]c(=O)n2C | inconclusive: 0.24% | –
41 | O=C(CNS(=O)(=O)c1ccc(F)cc1)N1CCOCC1 | inconclusive: -69.2% | –
42 | CSc1nncc(/C(C)=N\Nc2cccc(C)c2)n1 | inconclusive: 17.3% | –
43 | O=C(Nc1ccccc1Oc1ccccc1)c1ccc(Br)o1 | – | inconclusive: 2060 nM [activator, partial curve]
44 | Clc1ccc(-[n+]2c(-c3cccc(Br)c3)[nH]c3nc4ccccc4nc32)cc1 | inconclusive: 1.95% | –
45 | COc1ccc(-c2nc(SCC(=O)Nc3cccc(S(N)(=O)=O)c3)n[nH]2)cc1 | inconclusive | –
46 | Cn1c(N)cc(-c2ccc(F)cc2)c(C#N)c1=O | inconclusive: 58.3% | –
47 | Cc1cccc(-n2ncc3c2CCCC3NC(=O)Cn2cccn2)c1C (centres undefined) | – | inconclusive: 146 nM [falling, full curve]
48 | O=C(O)COc1ccccc1/C=N/NC(=O)CSc1nc2ccccc2n1Cc1ccc(Cl)cc1 | inconclusive: 6.14% | –
49 | Cc1ccc(CNC(=O)CN(C)C2=NS(=O)(=O)c3ccccc32)cc1 | – | inconclusive: 29100 nM [falling, single point]

Entries of single compounds, quoted from the list:
`CCCCN(C(=O)c1cc(CC)c(C)s1)c1c(N)n(CCC)c(=O)[nH]c1=O` is listed with Potency: inconclusive: 920 nM [rising, partial curve, poor fit]
`COc1ccc(NC(=O)NCCN2CCN(c3cc(OC)ccc3OC)CC2)cc1` is listed with lipid storage change, negative = inhibition: inconclusive: -20.2%
